The results in this text go back to US20130011864A1, “PHOTOLUMINESCENT NANOPARTICLE, PREPARATION, AND APPLICATION THEREOF” (Peking University, priority 2010, published 2013).

This series in a line: quantum yield for lanthanide (Eu3+) luminescence, DCM solution as reference. Format: physicochemical. The conditions noted are these: excitation at 410 nm, 20° C.

Regarding Eu(nta)3 bpt, the “increase of quantum yield relative to that of Eu(tta)3dpbt” value is recorded as 30%. Also, the “quantum yield for the Eu3+ luminescence” value (propanol solution of DCM as reference, complex itself) came to 0.52.
